Data as given in patent publication US20150362492A1.
Results are given in words; binding and its absence hold for the method and conditions named. Some entries that bind do so weakly or less than the wild type.

Columns and labels:
[1] = target: T1, purified human Factor XIIa (activated Factor XII), biotinylated (human) (UniProt P00748); assay: complex ELISA, biotinylated enzyme on avidin plate, anti-C1-INH detection
T1 sequence (chain, biotinylated with Sulfo-NHS-LC-Biotin (sites not stated)): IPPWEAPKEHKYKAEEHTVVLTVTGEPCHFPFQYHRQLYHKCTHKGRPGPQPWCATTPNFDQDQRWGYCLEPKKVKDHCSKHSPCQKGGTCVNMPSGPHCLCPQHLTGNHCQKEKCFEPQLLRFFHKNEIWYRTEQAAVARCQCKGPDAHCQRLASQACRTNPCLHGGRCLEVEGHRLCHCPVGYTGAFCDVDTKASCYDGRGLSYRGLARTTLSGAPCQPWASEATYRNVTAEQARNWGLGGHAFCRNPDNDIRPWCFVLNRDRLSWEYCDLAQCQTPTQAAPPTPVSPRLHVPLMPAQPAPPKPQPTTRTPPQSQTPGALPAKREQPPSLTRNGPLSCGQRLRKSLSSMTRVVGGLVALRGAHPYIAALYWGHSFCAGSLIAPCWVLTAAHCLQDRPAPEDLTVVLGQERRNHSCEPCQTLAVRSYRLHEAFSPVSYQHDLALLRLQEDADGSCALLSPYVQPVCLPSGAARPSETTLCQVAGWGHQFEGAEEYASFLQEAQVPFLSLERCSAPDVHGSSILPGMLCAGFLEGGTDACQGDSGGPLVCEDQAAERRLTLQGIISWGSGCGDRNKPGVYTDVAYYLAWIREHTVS

[2] = target: T1, purified human Factor XIIa (activated Factor XII), biotinylated (human); assay: complex ELISA, biotinylated Factor XIIa on avidin plate, plasma samples, anti-C1-INH detection
[3] = target: T2, activated C1s (commercial Quidel functional C1-INH ELISA kit) (UniProt P09871); assay: commercial functional complex ELISA (Quidel) based on inhibition of activated C1s by plasma C1-INH
T2 sequence (looked up): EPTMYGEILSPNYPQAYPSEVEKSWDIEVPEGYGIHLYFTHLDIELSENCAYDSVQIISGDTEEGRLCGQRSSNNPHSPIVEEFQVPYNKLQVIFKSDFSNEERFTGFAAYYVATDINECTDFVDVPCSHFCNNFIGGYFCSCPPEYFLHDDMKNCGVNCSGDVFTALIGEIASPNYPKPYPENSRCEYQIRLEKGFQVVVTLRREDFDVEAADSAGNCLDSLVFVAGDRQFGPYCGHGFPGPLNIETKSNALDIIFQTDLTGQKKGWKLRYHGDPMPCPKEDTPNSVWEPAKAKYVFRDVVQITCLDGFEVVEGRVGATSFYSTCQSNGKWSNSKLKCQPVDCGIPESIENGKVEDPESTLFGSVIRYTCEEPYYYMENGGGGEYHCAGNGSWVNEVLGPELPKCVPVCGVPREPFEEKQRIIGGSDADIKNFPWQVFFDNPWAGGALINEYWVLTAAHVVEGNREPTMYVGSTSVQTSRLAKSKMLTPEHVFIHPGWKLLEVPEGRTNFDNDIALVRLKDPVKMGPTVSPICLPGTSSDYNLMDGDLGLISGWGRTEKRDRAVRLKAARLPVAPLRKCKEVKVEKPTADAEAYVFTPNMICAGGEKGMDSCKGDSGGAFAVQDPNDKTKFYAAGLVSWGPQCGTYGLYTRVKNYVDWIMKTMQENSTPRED

[4] = target: T1, purified human Factor XIIa (activated Factor XII), biotinylated (human); assay: functional ELISA based on inhibition of FXII: biotinylated Factor XIIa on avidin plate, plasma, anti-C1-INH detection, read against a C1-INH standard curve
[5] = target: T1, purified human Factor XIIa (activated Factor XII), biotinylated (human); assay: complex ELISA: biotinylated Factor XIIa captured on avidin plate, incubated with plasma, bound C1-INH detected with polyclonal anti-C1-INH and alkaline phosphatase secondary antibody

Measured: binding

B1: plasma protease C1 inhibitor (C1-INH) in plasma of healthy (normal) controls (protein)
chain: NPNATSSSSQDPESLQDRGEGKVATTVISKMLFVEPILEVSSLPTTNSTTNSATKITANTTDEPTTQPTTEPTTQPTIQPTQPTTQLPTDSPTQPTTGSFCPGPVTLCSDLESHSTEAVLGDALVDFSLKLYHAFSAMKKVETNMAFSPFSIASLLTQVLLGAGENTKTNLESILSYPKDFTCVHQALKGFTTKGVTSVSQIFHSPDLAIRDTFVNASRTLYSSSPRVLSNNSDANLELINTWVAKNTNNKISRLLDSLPSDTRLVLLNAIYLSAKWKTTFDPKKTRMEPFHFKNSVIKVPMMNSKKYPVAHFIDQTLKAKVGQLQLSHNLSLVILVPQNLKHRLEDMEQALSPSVFKAIMEKLEMSKFQPTLLTLPRIKVTTSQDMLSIMEKLEFFDFSYDLNLCGLTEDPDLQVSAMQHQTVLELTETGVEAAAASAISVARTLLVFEVQQPFLFVLWDQQHKFPVFMGRVYDPRA
binds: all assays above
